Test results taken from patent US5603943A, “Nasally administrable compositions” (Dott Research Laboratory, priority 1994, dated 1997).
Where “and” joins values, the source holds several entries; their conditions need not be identical. Identical values can stand only once. Further values from the same series stand in other lists.

Tests used:
Format in all cases: in vivo, healthy male adults (human)
[1] = Glucagon blood concentration, nasal powder with hydroxyapatite (Test Example 8); details: nasal 1.2 glucagon unit/30 mg, individual cases No. 17-20 in order
Experimental: A nasally administrable composition in powdery form was prepared by formulating glucagon (from hog spleen) as a physiologically active peptide at the rate of 40 mg per composition (1,000 mg) with hydroxyapatite as a carrier having a mean particle size ranging from 40 to 45 μm.
The resulting composition was nasally administered once at a dose of 1.2 glucagon unit/30 mg to three healthy male adults and the blood (2.5 ml) was collected from each of the tested adults prior to administration and then at 5, 10, 15, 20, 30, 45, 60, 90, 120, 150 and 180 minutes after administration. The concentration of the glucagon in each of the collected blood samples was assayed with a standard RIA assay kit.

[2] = Salmon calcitonin blood concentration, nasal powder with magnesium stearate (Test Example 4); details: nasal 200 MRC (IU)/25 mg, individual cases No. 8-10 in order
Experimental: A nasally administrable composition in powdery form was prepared by formulating salmon calcitonin as a physiologically active peptide at the rate of 200 MRC (IU) per 25 mg with magnesium stearate as a carrier having a mean particle size ranging from 40 to 45 μm.
(§1) The resulting composition was nasally administered once at a dose of 25 mg to three healthy male adults and the blood (2.5 ml) was collected from each of the tested adults prior to administration and then at 5, 10, 15, 20, 30, 45, 60, 90, 120 and 180 minutes after administration. The concentration of the salmon calcitonin in each -of the collected blood samples was assayed with a standard RIA assay kit.

[3] = Salmon calcitonin blood concentration, nasal powder with calcium carbonate (Test Example 5); details: nasal 200 MRC (IU)/25 mg, individual cases No. 11-13 in order
Experimental: A nasally administrable composition in powdery form was prepared by formulating salmon calcitonin as a physiologically active peptide at the rate of 200 MRC (IU) per 25 mg with calcium carbonate as a carrier having a mean particle size ranging from 40 to 45 μm.
as §1, with “of” for “-of”

[4] = Salmon calcitonin blood concentration, nasal powder with aluminum hydroxide (Test Example 6); details: nasal 200 MRC (IU)/25 mg, individual cases No. 14-16 in order
Experimental: A nasally administrable composition in powdery form was prepared by formulating salmon calcitonin as a physiologically active peptide at the rate of 200 MRC (IU) per 25 mg with aluminum hydroxide as a carrier having a mean particle size ranging from 40 to 45 μm.
as §1, with “of” for “-of”

glucagon
Concentration of glucagon in the blood ([1]; 5 min): 0.073 ng/mL and 0.063 ng/mL and 0.054 ng/mL and 0.097 ng/mL | Concentration of glucagon in the blood ([1]; 10 min): 0.115 ng/mL and 0.074 ng/mL and 0.079 ng/mL and 0.117 ng/mL | Concentration of glucagon in the blood ([1]; 15 min): 0.117 ng/mL and 0.085 ng/mL and 0.17 ng/mL and 0.124 ng/mL | Concentration of glucagon in the blood ([1]; 20 min): 0.097 ng/mL and 0.1 ng/mL and 0.124 ng/mL and 0.121 ng/mL | Concentration of glucagon in the blood ([1]; 30 min): 0.082 ng/mL and 0.095 ng/mL and 0.086 ng/mL and 0.117 ng/mL | Concentration of glucagon in the blood ([1]; 45 min): 0.076 ng/mL and 0.098 ng/mL and 0.054 ng/mL and 0.112 ng/mL | Concentration of glucagon in the blood ([1]; 60 min): 0.063 ng/mL and 0.077 ng/mL and 0.046 ng/mL and 0.106 ng/mL | Concentration of glucagon in the blood ([1]; 90 min): 0.055 ng/mL and 0.07 ng/mL and 0.029 ng/mL and 0.087 ng/mL | Concentration of glucagon in the blood ([1]; 120 min): 0.054 ng/mL and 0.073 ng/mL and 0.029 ng/mL and 0.077 ng/mL | Concentration of glucagon in the blood ([1]; 150 min): 0.058 ng/mL and 0.083 ng/mL and 0.026 ng/mL and 0.071 ng/mL | Concentration of glucagon in the blood ([1]; 180 min): 0.042 ng/mL and 0.068 ng/mL and 0.027 ng/mL and 0.078 ng/mL

salmon calcitonin
Concentration of salmon calcitonin in the blood ([2]; 0 min (predose)): ~ 7 pg/ml | Concentration of salmon calcitonin in the blood ([2]; 5 min): 60.07 pg/mL and 25.23 pg/mL and 29.77 pg/mL | Concentration of salmon calcitonin in the blood ([2]; 10 min): 50.35 pg/mL and 16.18 pg/mL and 33.27 pg/mL | Concentration of salmon calcitonin in the blood ([2]; 15 min): 37.65 pg/mL and 24.43 pg/mL and 41.01 pg/mL | Concentration of salmon calcitonin in the blood ([2]; 20 min): 34.90 pg/mL and 15.84 pg/mL and 30.80 pg/mL | Concentration of salmon calcitonin in the blood ([2]; 30 min): 22.22 pg/ml and ~ 7 pg/ml and 16.19 pg/ml | Concentration of salmon calcitonin in the blood ([2]; 45 min): 16.75 pg/ml and ~ 7 pg/ml and 14.79 pg/ml | Concentration of salmon calcitonin in the blood ([2]; 60 min): 12.60 pg/ml and ~ 7 pg/ml and 14.15 pg/ml | Concentration of salmon calcitonin in the blood ([2]; 90 min): ~ 7 pg/ml and 9.42 pg/ml | Concentration of salmon calcitonin in the blood ([2]; 120 min): ~ 7 pg/ml | Concentration of salmon calcitonin in the blood ([2]; 180 min): ~ 7 pg/ml | Concentration of salmon calcitonin in the blood ([3]; 0 min (predose)): ~ 7 pg/ml | Concentration of salmon calcitonin in the blood ([3]; 5 min): 59.30 pg/mL and 40.60 pg/mL and 73.17 pg/mL | Concentration of salmon calcitonin in the blood ([3]; 10 min): 71.14 pg/mL and 121.74 pg/mL and 70.15 pg/mL | Concentration of salmon calcitonin in the blood ([3]; 15 min): 83.39 pg/mL and 131.95 pg/mL and 66.30 pg/mL | Concentration of salmon calcitonin in the blood ([3]; 20 min): 76.26 pg/mL and 113.20 pg/mL and 65.64 pg/mL | Concentration of salmon calcitonin in the blood ([3]; 30 min): 44.54 pg/mL and 46.19 pg/mL and 46.81 pg/mL | Concentration of salmon calcitonin in the blood ([3]; 45 min): 25.50 pg/mL and 38.65 pg/mL and 27.43 pg/mL | Concentration of salmon calcitonin in the blood ([3]; 60 min): 13.99 pg/mL and 13.39 pg/mL and 16.83 pg/mL | Concentration of salmon calcitonin in the blood ([3]; 90 min): 13.33 pg/mL and 16.00 pg/mL and 14.83 pg/mL | Concentration of salmon calcitonin in the blood ([3]; 120 min): 7.88 pg/mL and 12.02 pg/mL and 13.44 pg/mL | Concentration of salmon calcitonin in the blood ([3]; 180 min): 7.54 pg/mL and 8.09 pg/mL and 8.98 pg/mL | Concentration of salmon calcitonin in the blood ([4]; 90 min): ~ 7 pg/ml (2×) and 8.35 pg/ml | Concentration of salmon calcitonin in the blood ([4]; 120 min): ~ 7 pg/ml | Concentration of salmon calcitonin in the blood ([4]; 180 min): ~ 7 pg/ml (2×) and 8.26 pg/ml
